Data taken from patent US20250326749A1, “COMPOUNDS, COMPOSITIONS, AND METHODS OF USING THEREOF” (Sionna Therapeutics Inc., priority 2022, published 2025).
For at least one compound, name, drawing or mass did not settle the structure.

Protein sequences, listed by entry. Tags and fused reporters are not part of them. Lines headed by an entry give the natural chain unless they say otherwise; changes in a name come on top. Chains listed by the source or under a name are the forms on record and can include a tag or linker.
UniProt P13569, with tags, fused parts or gaps DEL508-508: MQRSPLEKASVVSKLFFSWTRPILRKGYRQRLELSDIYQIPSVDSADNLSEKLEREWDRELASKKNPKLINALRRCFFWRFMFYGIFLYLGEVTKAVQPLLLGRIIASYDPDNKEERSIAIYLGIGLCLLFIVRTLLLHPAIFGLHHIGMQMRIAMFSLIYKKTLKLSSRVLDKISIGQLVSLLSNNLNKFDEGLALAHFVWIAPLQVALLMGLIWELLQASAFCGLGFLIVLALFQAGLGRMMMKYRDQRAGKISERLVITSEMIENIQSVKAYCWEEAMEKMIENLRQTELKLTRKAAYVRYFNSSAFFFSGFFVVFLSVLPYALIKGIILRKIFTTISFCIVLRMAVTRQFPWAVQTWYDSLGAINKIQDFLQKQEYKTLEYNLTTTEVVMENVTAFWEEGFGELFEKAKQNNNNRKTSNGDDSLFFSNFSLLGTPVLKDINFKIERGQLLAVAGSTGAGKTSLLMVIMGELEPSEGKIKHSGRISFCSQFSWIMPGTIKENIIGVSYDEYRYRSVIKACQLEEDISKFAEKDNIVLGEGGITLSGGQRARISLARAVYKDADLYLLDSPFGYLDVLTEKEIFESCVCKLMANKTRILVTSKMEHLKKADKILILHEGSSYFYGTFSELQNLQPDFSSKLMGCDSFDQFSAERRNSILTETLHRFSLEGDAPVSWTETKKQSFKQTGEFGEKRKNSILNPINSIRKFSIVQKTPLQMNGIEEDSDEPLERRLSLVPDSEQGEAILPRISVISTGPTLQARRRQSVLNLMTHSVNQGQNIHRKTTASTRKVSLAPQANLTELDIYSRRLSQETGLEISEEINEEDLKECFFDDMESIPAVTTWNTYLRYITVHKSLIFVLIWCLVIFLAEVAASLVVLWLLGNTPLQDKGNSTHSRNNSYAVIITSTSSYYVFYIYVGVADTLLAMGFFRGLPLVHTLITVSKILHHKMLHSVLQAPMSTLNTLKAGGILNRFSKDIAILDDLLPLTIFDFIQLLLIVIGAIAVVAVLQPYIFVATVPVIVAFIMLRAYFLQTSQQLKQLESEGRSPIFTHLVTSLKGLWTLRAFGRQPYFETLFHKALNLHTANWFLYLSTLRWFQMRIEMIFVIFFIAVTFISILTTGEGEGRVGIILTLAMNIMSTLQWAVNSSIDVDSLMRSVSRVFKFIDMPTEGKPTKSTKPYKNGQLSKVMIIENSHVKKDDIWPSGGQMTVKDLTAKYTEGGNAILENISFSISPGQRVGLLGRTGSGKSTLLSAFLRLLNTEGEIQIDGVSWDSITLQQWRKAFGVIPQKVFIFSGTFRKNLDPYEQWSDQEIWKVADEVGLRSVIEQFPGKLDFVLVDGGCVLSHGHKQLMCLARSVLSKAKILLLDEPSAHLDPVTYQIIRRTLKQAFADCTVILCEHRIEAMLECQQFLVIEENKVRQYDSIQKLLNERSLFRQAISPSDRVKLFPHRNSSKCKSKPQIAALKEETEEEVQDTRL

Target: T1, ΔF508-CFTR (Homo sapiens, UniProt P13569, DEL508-508)
T1 construct: expressed in transfected cells; host or cells: CFSMEo- (human CF submucosal gland epithelial cells, ΔF508/Q2X), transiently transfected by nucleofection
Assay: ΔF508-CFTR-HRP trafficking assay (cell surface expression of ΔF508-CFTR)
Format: cell-based
Settings: CFSMEo- cells transiently transfected with ΔF508-CFTR-HRP; test agent 3 μM, 48 h; HRP chemiluminescence
Description: Test agents were screened for their effect on cell surface expression of ΔF508-CFTR using the ΔF508-CFTR-HRP trafficking assay. For this assay, a ΔF508-CFTR expression construct was designed with an in-frame insertion of a horseradish peroxidase (HRP) tag into the 4th extracellular loop of CFTR. The HRP tag would be presented extracellularly, in cells transiently transfected with the ΔF508-CFTR-HRP construct, following correction of the ΔF508-CFTR trafficking defect. The quantity of ΔF508-CFTR-HRP expressed on the plasma membrane could therefore be determined by measuring an HRP-dependent signal after the application of a cell-impermeable HRP substrate.
In brief, CF submucosal gland epithelial cells (CFSMEo-), derived from the airways of a CF patient (ΔF508/Q2X) and provided by Dr. Dieter Gruenert, University of California-San Francisco, were cultured at 37° C. with 5% CO2 in minimum essential medium (MEM) with Earle's salt and nonessential amino acids, supplemented with 10% (volume per volume [v/v]) fetal bovine serum, 2 mM L-glutamine and 1× (v/v) penicillin/streptomycin and grown in tissue culture-treated flasks coated with an extracellular matrix (ECM) cocktail consisting of 10 μg/mL human fibronectin, 30 μg/mL bovine collagen type I, and 100 μg/mL bovine serum albumin in LHC basal medium. These CFSMEo^− cells were transiently transfected with 4 μg of the ΔF508-CFTR-HRP expression construct using the Lonza 4D-Nucleofector Core unit (Lonza, Catalogue No. AAF-1002B) with the X unit (Lonza, Catalogue No. AAF-1002X) and SF Cell Line 4D-Nucleofector X Kit L (Lonza, Catalogue No. V4XC-2024) according to the manufacturer's instructions and plated at 1.2×10^4 cells/well onto collagen-coated, 96-well plates (Corning Inc.). Twenty-four h post-transfection, cells were treated with test agents, solubilized in DMSO at a concentration of 3 μM in replicates of 3, and allowed to incubate for 48 h. […] Following a 5-minute incubation, chemiluminescence was measured in relative luminescent units (RLUs) using an EnVision plate reader (Perkin Elmer, Waltham, MA). […]

Row | Structure (SMILES) | RLUs: ΔF508-CFTR-HRP trafficking data normalized to the vehicle treated control (0.3% DMSO)
1 | C[C@H](Oc1cc(-n2nc(C(F)(F)F)c3c2[C@@H](C(=O)N2CCC(C(=O)O)CC2)CCC3)ccn1)c1ccc2c(c1)OC(F)(F)O2 (single isomer, unassigned) [121 (P1)] | A (RLU 5.0 μM-10 μM)
2 | C[C@H](Oc1cc(-n2nc(C(F)(F)F)c3c2[C@H](C(=O)N2CCC(C(=O)O)CC2)CCC3)ccn1)c1ccc2c(c1)OC(F)(F)O2 (single isomer, unassigned) [121 (P2)] | C (RLU 0.0 μM-3.5 μM)
3 | C[C@H](Oc1cc(-n2nc(C(F)(F)F)c3c2[C@@H](Oc2ccc(C(=O)O)cc2)CCC3)ccn1)c1ccc2c(c1)OC(F)(F)O2 (single isomer, unassigned) [Example 24] | B (RLU 3.5 μM-5.0 μM)
